In the supplement of paper PMC12873370:
Where “and” joins values, the source holds several entries; their conditions need not be identical. Identical values can stand only once. The list shows a part of the results. Most values come without repeats; read them as rough.

What was measured:
[1] = system: MEPP (mouse ovarian epithelium Trp53/Pten KO); assay: cell viability relative to untreated (fraction); higher = less growth inhibition; settings: 5 µM; 3 days
[2] = system: PREPP (mouse prostate epithelium Trp53/Pten KO); assay: as above; settings: 5 µM; 3 days

Structure (SMILES)	cell viability [1]	cell viability [2]
CC(=O)C(C)O (stereo not given)	1.09	0.881
OC[C@H]1O[C@H](O[C@H]2[C@H](O)[C@@H](O)[C@@H](O[C@H]3[C@H](O)[C@@H](O)[C@@H](O)O[C@@H]3CO)O[C@@H]2CO)[C@H](O)[C@@H](O)[C@@H]1O	0.84	0.839
COc1cc2c(cc1OC)[C@@H](Cc1ccc(Oc3cc(C[C@@H]4c5cc(OC)c(OC)cc5CCN4C)ccc3O)cc1)N(C)CC2	0.919	0.748
OC[C@H]1OC(O)[C@@H](O)[C@@H](O)[C@@H]1O (stereo not given in full)	0.988	0.998
Cc1cccc(N(C)C(=S)Oc2ccc3ccccc3c2)c1	0.93	0.914
N[C@@H](CCO)C(=O)O	0.941	0.905
C/C=C1\C(=O)C[C@H]2[C@@H]3CCC4=CC(=O)CC[C@]4(C)[C@H]3CC[C@]12C	0.778	0.877
O=C1c2ccc(O)cc2C(=O)c2ccc(O)cc21	0.926	1.22
Nc1ncnc2c1ncn2[C@@H]1O[C@H](CO)C[C@H]1O	0.885	1.22
CC[C@]12CCCN3CCc4c(n(c5ccccc45)[C@@](O)(C(=O)OC)C1)[C@@H]32	1.32	1.03
CC(=O)OC/C=C(\C)CCC=C(C)C	1.24	0.927
O=c1ccn2c(n1)O[C@H]1[C@H](O)[C@@H](CO)O[C@H]12	0.962	0.859
C[C@@]1(F)[C@H](O)[C@@H](CO)O[C@H]1n1ccc(=O)[nH]c1=O	0.953	0.847
O=c1[nH]c(=O)c2nc[nH]c2[nH]1	1.02	0.956
CN[C@@H]1[C@@H](O[C@H]2O[C@H](CO)[C@@H](N)[C@H](O)[C@H]2O)OC2C[C@@H](N)[C@@H](O[C@H]3[C@H](O)[C@@H](O)[C@H](N)C[C@@H]3N)OC2[C@@H]1O (stereo not given in full)	1.11	0.939
Nc1ccc(O)c(C(=O)O)c1	0.918	0.962
O=C(O)C=Cc1ccc(O)cc1	1.2	0.96
O=C(O)c1cc2ccccc2[nH]1	0.984	0.976
Nc1ccc(S(=O)(=O)Nc2ncccn2)cc1	1.03	1.07
CCCCCCOC(=O)NC(=N)c1ccc(NCc2nc3cc(C(=O)N(CCC(=O)OCC)c4ccccn4)ccc3n2C)cc1	1.01	0.919

Structure (SMILES)	cell viability [1]	cell viability [2]
N[C@H]1C(O)O[C@H](CO)[C@@H](O)[C@@H]1O (stereo not given in full)	1.18 and 1.05	0.918 and 1.07
CO/N=C(\C(=O)N[C@@H]1C(=O)N2C(C(=O)O)=C(CSc3nc(=O)c(O)nn3C)CS[C@H]12)c1csc(N)n1	1.36	1.03
COc1cc2ccc(=O)oc2cc1O	1.19	0.812
C[C@@H]1O[C@@H](O[C@H]2[C@H](O[C@H]3CC[C@@]4(C)[C@@H](CC[C@]5(C)[C@@H]4CC=C4[C@@H]6CC(C)(C)CC[C@]6(C(=O)O[C@@H]6O[C@H](CO[C@@H]7O[C@H](CO)[C@@H](O)[C@H](O)[C@H]7O)[C@@H](O)[C@H](O)[C@H]6O)CC[C@]45C)[C@]3(C)CO)OC[C@H](O)[C@@H]2O)[C@H](O)[C@H](O[C@@H]2O[C@H](CO)[C@@H](O[C@@H]3O[C@H](CO)[C@@H](O)[C@H](O)[C@H]3O)[C@H](O)[C@H]2O)[C@H]1O	1.16	1.12
COc1cc(Cc2cnc(N)nc2N)cc(OC)c1OC	0.909	0.88
CC1(C)CC[C@]2(C(=O)O)CC[C@]3(C)C(=CC[C@@H]4[C@@]5(C)CC[C@H](O)C(C)(C)[C@@H]5CC[C@]43C)[C@@H]2C1	1.06	1.37
OC[C@H]1OC(O)[C@H](O)[C@@H](O)[C@@H]1O (stereo not given in full)	1.37	0.852
NCCc1c[nH]cn1	1.34 and 1.28 and 1.07	0.987 and 0.932 and 0.875
CC(C)(S)[C@@H](N)C(=O)O	0.791 and 0.884	0.949 and 0.967
Clc1ccc(COC(Cn2ccnc2)c2ccc(Cl)cc2Cl)c(Cl)c1 (stereo not given)	1.14 and 0.974	0.976 and 0.953
CNC1CCCN(c2c(F)cc3c(=O)c(C(=O)O)cn(C4CC4)c3c2OC)C1 (stereo not given)	1.1	1.02
O=C([O-])CC(O)(CC(=O)[O-])C(=O)[O-].[Na+].[Na+].[Na+]	0.895	0.915
CC1=NCC[C@@H](C(=O)O)N1	0.888	1.33
c1c[nH]cn1	0.923	1.05
CCN(CC)C(=O)c1cccc(C)c1	0.904	0.816
CC1(C)S[C@@H]2[C@H](NC(=O)[C@H](NC(=O)N3CCNC3=O)c3ccccc3)C(=O)N2[C@H]1C(=O)O	1.13	0.997
O=C(O)c1cn(-c2ccc(F)cc2)c2cc(N3CCNCC3)c(F)cc2c1=O	1.01	0.856
N[C@@H]1CCCCN(c2c(F)cc3c(=O)c(C(=O)O)cn(C4CC4)c3c2Cl)C1	1	0.994
CCN1C(=O)C=CC1=O	1.03	1.1
CC(=O)[C@H]1CC[C@H]2[C@@H]3CCC4=CC(=O)CC[C@]4(C)[C@H]3CC[C@]12C	1.21	1.07
